Reference: PMC8616936
Results are given in words; binding and its absence hold for the method and conditions named. Some entries that bind do so weakly or less than the wild type.

Biological target: T1, D. melanogaster DROSHA (D. melanogaster) (UniProt Q7KNF1)
T1 sequence: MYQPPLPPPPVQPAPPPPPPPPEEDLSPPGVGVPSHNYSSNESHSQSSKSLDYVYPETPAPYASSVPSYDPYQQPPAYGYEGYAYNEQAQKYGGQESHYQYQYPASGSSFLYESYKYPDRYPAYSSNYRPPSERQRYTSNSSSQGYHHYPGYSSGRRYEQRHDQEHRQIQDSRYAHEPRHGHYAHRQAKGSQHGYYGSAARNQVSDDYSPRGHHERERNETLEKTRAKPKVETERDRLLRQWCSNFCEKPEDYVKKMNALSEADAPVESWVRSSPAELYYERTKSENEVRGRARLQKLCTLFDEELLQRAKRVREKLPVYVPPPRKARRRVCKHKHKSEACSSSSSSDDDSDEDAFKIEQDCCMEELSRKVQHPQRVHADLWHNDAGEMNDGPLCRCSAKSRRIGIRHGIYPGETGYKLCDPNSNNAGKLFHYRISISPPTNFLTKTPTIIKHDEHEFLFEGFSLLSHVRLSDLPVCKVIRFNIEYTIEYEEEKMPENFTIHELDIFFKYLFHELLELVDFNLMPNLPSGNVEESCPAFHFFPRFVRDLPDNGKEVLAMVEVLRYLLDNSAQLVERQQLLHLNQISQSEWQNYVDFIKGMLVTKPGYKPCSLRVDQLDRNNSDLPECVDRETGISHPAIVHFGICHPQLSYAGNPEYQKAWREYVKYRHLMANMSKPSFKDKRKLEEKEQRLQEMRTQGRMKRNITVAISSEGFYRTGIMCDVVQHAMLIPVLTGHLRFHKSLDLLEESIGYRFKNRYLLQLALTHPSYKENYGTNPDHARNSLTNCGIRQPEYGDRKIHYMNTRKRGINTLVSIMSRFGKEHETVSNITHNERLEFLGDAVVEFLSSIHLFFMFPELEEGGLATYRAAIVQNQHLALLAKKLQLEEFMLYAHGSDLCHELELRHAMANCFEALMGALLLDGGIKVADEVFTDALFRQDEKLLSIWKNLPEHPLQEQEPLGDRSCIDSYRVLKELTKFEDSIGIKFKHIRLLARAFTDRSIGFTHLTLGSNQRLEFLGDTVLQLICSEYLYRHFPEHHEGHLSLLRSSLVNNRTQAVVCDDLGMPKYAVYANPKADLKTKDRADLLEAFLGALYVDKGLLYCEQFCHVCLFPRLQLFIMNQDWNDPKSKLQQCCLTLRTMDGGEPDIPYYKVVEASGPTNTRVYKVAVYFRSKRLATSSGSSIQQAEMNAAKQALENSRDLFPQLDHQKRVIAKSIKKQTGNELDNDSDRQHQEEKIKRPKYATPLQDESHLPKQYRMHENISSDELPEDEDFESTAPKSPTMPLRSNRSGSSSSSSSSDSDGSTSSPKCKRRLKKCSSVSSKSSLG
Assay: tandem affinity co-purification (Ni-NTA, then IgG sepharose); both proteins co-expressed in HEK293E; lysate in T500 (20 mM Tris-HCl pH 7.5, 500 mM NaCl, 4 mM beta-mercaptoethanol) with 2 ug/ml RNase A; Ni-NTA (His tag on the DGCR8 ortholog), washes with 0 and 2000 mM NaCl and 50 mM imidazole, eluted with 300 mM imidazole; eluate bound to IgG sepharose (protein G on DROSHA) at 4 °C for 4 h

- binding: binds
B1: D. melanogaster PASHA (protein, UniProt Q9V9V7 1-642)
chain: MAEKPLADCPDSGQVRKRPRLEDEEQELKVAGFSLSAIEEMRRTRDNELQNEPMDQQLRQFQVLDEVGSGSDEDDESDNASEQQGGRYGEGGDEEEEAADGDGEEYDSSEFDDDEIENLLDEKLPEELRESKQPKYEQRFKTVLEEKRLNHFEVLPEGWVQVTHNSGMPLFLHRKTRVCCASRPYFLGTGSARKHAVPLGAIPCLNYRRALEEESEVEQQKTDGAPPVAVCPMAGASALPAEAMDVEGKENNEGSTDSKTQPDGITALMPAAKIVTVNENTQKESITPEQLNTYCQKLFKFKVIRVLRFRSWNARRKFTKNRKHIKNIQRPTLPDGTKLIKFPILANAGEGSTNPRGRKEWIMNPNGKSFVCILHEYVQHALKTQPTYEFKELQNAATPYSATVSVNNLKYGTGYGTSKKQAKSEAARETLEILIPDVKDKITGNNKDQKSGTAKKAQSDLSVFDDIRIEDPRVTEFCNKTTEPSPNAILLTCLQRNYGSDVQISQEINRTANNKNEFTMTVGKHTAKVVCKNKREGKQLASQAILQILHPHIQTWGSLLRLYGNNSIKTFKEKKLEEQEITVLQSKAAVNQPNYAILDKLKSEMLKLCAKQESVLTMGTFVPPSDVDLPTSSGSNLNNVEL
